No constants are given. Whether binding was seen depends on the method and setting. In cells and extracts the contact can be indirect. Some binding calls cover weakened binding; strength is not graded here.
Experiments:
PPARα = target: T1, PPARα (UniProt P23204); test: co-IP; cell lysates with control or specific antibodies (anti-KLF11, anti-PPARα, anti-YAP1, anti-IgG) for 12 h at 4 °C, protein A/G agarose beads, SDS-PAGE and immunoblotting; the section heading says that wogonin promoted the interaction
T1 sequence: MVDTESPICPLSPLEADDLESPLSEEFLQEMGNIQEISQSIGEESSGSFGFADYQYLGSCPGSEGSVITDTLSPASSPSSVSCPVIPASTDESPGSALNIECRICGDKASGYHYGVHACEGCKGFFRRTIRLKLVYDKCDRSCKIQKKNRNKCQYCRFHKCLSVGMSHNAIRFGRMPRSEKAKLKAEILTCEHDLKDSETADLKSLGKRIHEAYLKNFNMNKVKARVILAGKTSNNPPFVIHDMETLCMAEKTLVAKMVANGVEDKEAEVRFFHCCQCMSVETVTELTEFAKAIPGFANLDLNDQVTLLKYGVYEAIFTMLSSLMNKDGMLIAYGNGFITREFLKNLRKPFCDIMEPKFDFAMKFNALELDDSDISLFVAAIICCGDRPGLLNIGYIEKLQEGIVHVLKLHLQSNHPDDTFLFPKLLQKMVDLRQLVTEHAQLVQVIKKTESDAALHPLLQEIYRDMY

Chains of the proteins cited; added tags and fusions are not shown.
UniProt P46938: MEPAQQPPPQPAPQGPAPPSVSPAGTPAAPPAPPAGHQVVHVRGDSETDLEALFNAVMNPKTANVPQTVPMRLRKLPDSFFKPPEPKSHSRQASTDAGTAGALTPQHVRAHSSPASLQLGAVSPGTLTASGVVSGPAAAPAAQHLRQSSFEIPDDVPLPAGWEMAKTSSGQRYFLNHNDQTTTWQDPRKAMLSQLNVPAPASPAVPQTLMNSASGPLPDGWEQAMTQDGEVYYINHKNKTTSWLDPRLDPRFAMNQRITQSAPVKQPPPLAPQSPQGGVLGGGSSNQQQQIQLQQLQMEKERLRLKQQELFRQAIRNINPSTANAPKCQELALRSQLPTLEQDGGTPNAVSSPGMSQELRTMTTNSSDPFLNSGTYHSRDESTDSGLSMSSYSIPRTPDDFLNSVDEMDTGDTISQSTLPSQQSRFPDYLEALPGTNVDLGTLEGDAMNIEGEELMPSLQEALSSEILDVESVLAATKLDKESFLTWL
UniProt Q8K1S5: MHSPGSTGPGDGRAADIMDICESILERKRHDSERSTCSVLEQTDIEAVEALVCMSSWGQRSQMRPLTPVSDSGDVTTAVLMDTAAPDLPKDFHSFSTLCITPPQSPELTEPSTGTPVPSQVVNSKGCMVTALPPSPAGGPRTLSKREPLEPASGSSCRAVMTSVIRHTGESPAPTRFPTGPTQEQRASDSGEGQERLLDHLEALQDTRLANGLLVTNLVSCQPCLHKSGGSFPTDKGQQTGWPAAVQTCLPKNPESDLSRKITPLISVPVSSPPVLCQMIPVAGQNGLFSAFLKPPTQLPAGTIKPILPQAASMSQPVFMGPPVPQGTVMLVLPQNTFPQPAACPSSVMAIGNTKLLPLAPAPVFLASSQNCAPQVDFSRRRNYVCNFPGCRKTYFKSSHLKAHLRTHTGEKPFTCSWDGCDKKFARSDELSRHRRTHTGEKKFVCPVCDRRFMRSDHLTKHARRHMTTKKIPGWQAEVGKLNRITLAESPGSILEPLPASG

YAP1 = YAP1 (UniProt P46938); test: as above

binding (PPARα)	binding (YAP1)	Substance
binds	binds	KLF11 (from UniProt Q8K1S5 1-502)
binds		YAP1 (from UniProt P46938 1-488)
